Our source for the binding values is paper PMC11978164.

Amino acid sequences for entries named in this document (tags omitted).
UniProt Q13263: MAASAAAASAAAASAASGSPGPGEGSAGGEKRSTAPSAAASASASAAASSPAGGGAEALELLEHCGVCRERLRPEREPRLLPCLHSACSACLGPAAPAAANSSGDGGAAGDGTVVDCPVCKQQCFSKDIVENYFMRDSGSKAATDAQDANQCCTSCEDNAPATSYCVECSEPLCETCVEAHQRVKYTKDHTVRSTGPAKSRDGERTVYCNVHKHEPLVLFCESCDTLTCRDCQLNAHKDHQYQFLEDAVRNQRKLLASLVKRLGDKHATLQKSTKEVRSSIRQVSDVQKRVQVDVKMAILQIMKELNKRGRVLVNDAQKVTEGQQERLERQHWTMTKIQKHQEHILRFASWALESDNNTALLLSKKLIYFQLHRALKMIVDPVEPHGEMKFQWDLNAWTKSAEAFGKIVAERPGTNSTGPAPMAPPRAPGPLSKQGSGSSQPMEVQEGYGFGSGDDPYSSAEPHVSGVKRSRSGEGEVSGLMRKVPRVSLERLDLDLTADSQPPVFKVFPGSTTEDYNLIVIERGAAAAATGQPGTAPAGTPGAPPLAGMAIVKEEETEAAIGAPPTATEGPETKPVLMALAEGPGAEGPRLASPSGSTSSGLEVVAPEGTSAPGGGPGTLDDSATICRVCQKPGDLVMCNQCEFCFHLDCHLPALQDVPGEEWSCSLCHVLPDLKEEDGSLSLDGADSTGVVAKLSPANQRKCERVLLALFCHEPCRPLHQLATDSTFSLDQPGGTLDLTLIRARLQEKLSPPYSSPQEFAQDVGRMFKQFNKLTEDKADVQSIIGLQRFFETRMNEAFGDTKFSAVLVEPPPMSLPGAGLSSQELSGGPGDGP
UniProt P63104: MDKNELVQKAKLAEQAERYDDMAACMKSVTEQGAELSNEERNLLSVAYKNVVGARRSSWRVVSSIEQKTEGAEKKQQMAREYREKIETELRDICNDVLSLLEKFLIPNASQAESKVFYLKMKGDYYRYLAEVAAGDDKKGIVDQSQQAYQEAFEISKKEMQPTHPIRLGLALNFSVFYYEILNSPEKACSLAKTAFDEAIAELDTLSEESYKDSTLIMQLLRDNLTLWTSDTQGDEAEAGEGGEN

These are yes or no findings as the source states them, for the method shown. Binding seen in cells or lysates may run through a third protein. Some binding calls cover weakened binding; strength is not graded here.

The target of this experiment is TRIM28 (human (endogenous in ARP1, RPMI 8226, U266)) (UniProt Q13263). As to the kind of experiment: co-IP; endogenous proteins; 2 x 10^7 ARP1, RPMI 8226 and U266 cells lysed in NP-40 lysis buffer with protease inhibitors; overnight at 4 °C with anti-TRIM28 or anti-14-3-3ζ, protein A/G beads, western blot.

14-3-3ζ (from UniProt P63104 1-245): the binding entry is reported as “binds”.
